# Experimental data: the supplement of paper PMC9135407
# Several values for one entry are separate records, joined by “and”; a condition that tells them apart may be missing. Equal values may be shown once. Where a name gives a salt, the structure may show the parent alone. ± gives the standard deviation of the averaged measurements. Some of the results follow. Part of the spread comes from offsets between plates or batches.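 Culture-activated primary human stellate myofibroblasts, where regained lipid droplets signal inactivation. Value: share of Hoechst-counted cells above a per-plate Bodipy cutoff, in duplicate wells, with DMSO negative and nortriptyline positive controls on each plate. Hits: a control-normalized score above the plate's top-tenth-percentile nortriptyline wells, or one of a plate's three best wells. Final well concentrations are not given.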
# Test system: primary human hepatic stellate cells (donor 1)
# Experiment: percent Bodipy-positive cells; higher = more lipid droplet accumulation
# Settings: 48 h
# [1] = library stock concentration: 1 mM
# [2] = library stock concentration: 10 mM
# [3] = library stock concentration: 3.33 mM
compound,measurement,setting,value
CCCCC[C@H](O)/C=C/[C@H]1CC[C@@H](O)[C@@H]1C/C=C\CCCC(=O)O [11-deoxy Prostaglandin F2.beta.],percent Bodipy-positive cells,[1],21.8 ± 5.3%
CCN(CCCc1ccccc1)CCCc1ccccc1 [Alverine citrate],percent Bodipy-positive cells,[2],45.6 ± 6.4%
CCN(CCCc1ccccc1)CCCc1ccccc1 [Alverine Citrate],percent Bodipy-positive cells,[3],29.2 ± 3.2%
same,percent Bodipy-positive cells,[2],62.9 ± 5.5%
CCN(CCCc1ccccc1)CCCc1ccccc1 [Alverine citrate salt],percent Bodipy-positive cells,,60.6 ± 1.3%
"Cc1c(C)c2c(c(C)c1O)CC[C@@](C)(CCC[C@H](C)CCC[C@H](C)CCCC(C)C)O2 (racemic) [Tocopherol (R,S)]",percent Bodipy-positive cells,,26.6 ± 14%
CCCCC(CC)COC(=O)c1ccccc1O (stereo unspecified) [Octisalate],percent Bodipy-positive cells,library stock concentration: 8 mM,2.22 ± 0.26%
CC(CCc1ccc(O)cc1)NCC(O)c1ccc(O)cc1 (stereo unspecified) [Ractopamine],percent Bodipy-positive cells,library stock concentration: 6.6 mM,8.61 ± 3%
CC(CCc1ccc(O)cc1)NCC(O)c1ccc(O)cc1 (stereo unspecified),percent Bodipy-positive cells,[2],21.6 ± 4%
CC(=O)[C@H]1CC[C@H]2[C@@H]3CC=C4C[C@@H](OC(=O)CCC(=O)O)CC[C@]4(C)[C@H]3CC[C@]12C,percent Bodipy-positive cells,[2],32.1 ± 2%
CCN(CC)C(=O)CCC/C=C\C[C@@H]1[C@@H](/C=C/[C@@H](O)CCc2ccccc2)[C@H](O)C[C@@H]1O [17-phenyl trinor Prostaglandin F2.alpha. diethyl amide],percent Bodipy-positive cells,[1],16.8 ± 2.6%
CC[C@]1(O)C[C@@H]2CN(CCc3c([nH]c4ccccc34)[C@@](C(=O)OC)(c3cc4c(cc3OC)N(C)[C@H]3[C@@](O)(C(=O)OC)[C@H](OC(C)=O)[C@]5(CC)C=CCN6CC[C@]43[C@@H]65)C2)C1 [Vinblastine],percent Bodipy-positive cells,[3],69.7 ± 4.6%
O=C(O)c1ccc(N2C(=O)C(=Cc3ccc(-c4ccc([N+](=O)[O-])cc4)o3)C=C2c2ccccc2)cc1,percent Bodipy-positive cells,[3],3.89 ± 0.56%
same,percent Bodipy-positive cells,[2],10.9 ± 5.3%
CC(C)(C)C(O)/C=C/c1ccc2c(c1)OCO2 (stereo unspecified) [Stiripentol],percent Bodipy-positive cells,[2],9.62 ± 3.1%
Cc1cc(CS(=O)(=O)c2ccccc2)cc(OCc2ccc(CN3CCC[C@@H]3CO)cc2)c1,percent Bodipy-positive cells,[3],64.2 ± 14%
CC(/C=C/C(=O)NO)=C\[C@@H](C)C(=O)c1ccc(N(C)C)cc1 [Trichostatin A],percent Bodipy-positive cells,[1],71.2 ± 6.7%
Nc1cc(N2CCCCC2)nc(N)[n+]1OS(=O)(=O)[O-] [Minoxidil sulfate],percent Bodipy-positive cells,library stock concentration: 17.3 mM,12.3 ± 1.3%
Clc1ccc(COC(Cn2ccnc2)c2ccc(Cl)cc2Cl)cc1 (stereo unspecified) [Econazole nitrate],percent Bodipy-positive cells,,52.8 ± 2%
same,percent Bodipy-positive cells,[3],5.69 ± 2%
same,percent Bodipy-positive cells,library stock concentration: 4.5 mM,63.6 ± 15%
same,percent Bodipy-positive cells,[2],42.9% and 28.6%
Clc1ccc(COC(Cn2ccnc2)c2ccc(Cl)cc2Cl)cc1 (stereo unspecified) [Econazole Nitrate],percent Bodipy-positive cells,[2],95.6 ± 3.2%
Cc1cc(N2CCOCC2)cc2[nH]c(-c3c(NCC(O)c4cccc(Cl)c4)cc[nH]c3=O)nc12 (stereo unspecified),percent Bodipy-positive cells,[3],6.65 ± 0.93%
same,percent Bodipy-positive cells,[2],66.6 ± 12%
C[C@H](CCC(=O)NCC(=O)O)[C@H]1CC[C@H]2[C@@H]3[C@H](O)C[C@@H]4C[C@H](O)CC[C@]4(C)[C@H]3C[C@H](O)[C@]12C [Glycocholic acid],percent Bodipy-positive cells,,38.7 ± 15%
CCCCCCCC/C=C\CCCCCCCCCCCC(=O)O [13(Z)-Docosenoic Acid],percent Bodipy-positive cells,[1],12.1 ± 2.4%
CN(C)CCOc1ccc(-c2nc(-c3ccncc3)c(-c3ccc4c(c3)CCC4=NO)[nH]2)cc1,percent Bodipy-positive cells,[3],86 ± 12%
CO/N=C1\CN(c2nc3c(cc2F)c(=O)c(C(=O)O)cn3C2CC2)CC1CN (stereo unspecified) [Gemifloxacin mesylate],percent Bodipy-positive cells,[2],34.4 ± 3.2%
CCNc1nc2c(ncn2[C@H]2C[C@H](O)[C@@H](CO)O2)c(=O)[nH]1 [N2-Ethyl-2'-deoxyguanosine],percent Bodipy-positive cells,[2],12.75 ± 0.088%
Clc1ccccc1C(c1ccccc1)(c1ccccc1)n1ccnc1 [Clotrimazole],percent Bodipy-positive cells,,25.1 ± 3.9%
same,percent Bodipy-positive cells,[3],7.68 ± 4.5%
same,percent Bodipy-positive cells,library stock concentration: 5.8 mM,3.1 ± 3%
NC(=O)NO [Hydroxyurea],percent Bodipy-positive cells,[3],6.36 ± 0.44%
same,percent Bodipy-positive cells,[2],21.8% and 18.4% and 40.6%
same,percent Bodipy-positive cells,library stock concentration: 26.3 mM,2.11 ± 1.2%
"CCN(CC)C(=O)c1ccc(Nc2nc(OCC3CCCCC3)c3[nH]cnc3n2)cc1 [Cdk2 Inhibitor IV, NU6140]",percent Bodipy-positive cells,[3],8.79 ± 0.76%
Cc1cc(C(=O)Nc2cc(Nc3ccc4c(/C=C/c5ccccn5)n[nH]c4c3)ccc2F)n(C)n1,percent Bodipy-positive cells,[2],89.9 ± 3%
CN1CCN(C2=Nc3cc(Cl)ccc3Nc3ccccc32)CC1,percent Bodipy-positive cells,[2],88.5 ± 2.5%
CN1CCC[C@H]1c1cccnc1 [Nicotine ditartrate],percent Bodipy-positive cells,[2],46 ± 2.9%
CN1CCC[C@H]1c1cccnc1,percent Bodipy-positive cells,[2],29.1 ± 2.8%
O=S(=O)(O)CCSSCCS(=O)(=O)O [Dimesna],percent Bodipy-positive cells,[3],11.5 ± 6.8%
same,percent Bodipy-positive cells,[2],17.8 ± 1.1%
O=S(=O)(O)CCSSCCS(=O)(=O)O,percent Bodipy-positive cells,[2],24.9 ± 2.1%
CCCC(C(=O)OCCN(CC)CC)(c1ccccc1)c1ccccc1 [SKF-525A hydrochloride],percent Bodipy-positive cells,[2],97.1 ± 1.9%
CCCC(C(=O)OCCN(CC)CC)(c1ccccc1)c1ccccc1 [Proadifen hydrochloride],percent Bodipy-positive cells,,44.5 ± 6%
same,percent Bodipy-positive cells,library stock concentration: 5.1 mM,75 ± 4%
same,percent Bodipy-positive cells,[2],76.9 ± 1.6%
CO[C@H]1C(=O)[C@]2(C)[C@@H](OC)C[C@H]3OC[C@@]3(OC(C)=O)[C@H]2[C@H](OC(=O)c2ccccc2)[C@]2(O)C[C@H](OC(=O)[C@H](O)[C@@H](NC(=O)OC(C)(C)C)c3ccccc3)C(C)=C1C2(C)C [Cabazitaxel],percent Bodipy-positive cells,[3],7.78 ± 2.7%
same,percent Bodipy-positive cells,[2],15 ± 2.4%
CCCCC/C=C\C\C=C/C=C/C=C/CC(=O)CCCC(=O)O [5-Ketoeicosatetraenoic acid],percent Bodipy-positive cells,library stock concentration: 100 uM,9.07 ± 4.7%

# Part of the list above, tab-delimited:
compound	measurement	setting	value
CCN(CCCc1ccccc1)CCCc1ccccc1 [Alverine citrate salt]	percent Bodipy-positive cells		60.6 ± 1.3%
Cc1cc(N2CCOCC2)cc2[nH]c(-c3c(NCC(O)c4cccc(Cl)c4)cc[nH]c3=O)nc12 (stereo unspecified)	percent Bodipy-positive cells	[3]	6.65 ± 0.93%
